Assay results published in patent publication US20180134765A1.
No constants are given. Whether binding was seen depends on the method and setting. Some results given as binding are weak or reduced against the parent protein; the word gives no strength.

The chains behind the UniProt entries cited, without tags or fusion partners. Residues count along the entry.
UniProt P22607, residues 23-375: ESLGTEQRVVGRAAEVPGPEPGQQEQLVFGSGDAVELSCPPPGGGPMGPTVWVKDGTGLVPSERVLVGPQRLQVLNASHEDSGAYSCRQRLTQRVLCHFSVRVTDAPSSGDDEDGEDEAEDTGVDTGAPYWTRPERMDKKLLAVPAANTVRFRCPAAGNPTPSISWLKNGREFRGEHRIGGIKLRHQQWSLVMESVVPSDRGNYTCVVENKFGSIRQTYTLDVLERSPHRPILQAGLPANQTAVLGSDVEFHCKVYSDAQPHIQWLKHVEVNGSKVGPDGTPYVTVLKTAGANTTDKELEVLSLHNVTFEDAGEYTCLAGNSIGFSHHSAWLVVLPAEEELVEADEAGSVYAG

Assays:
[1] = molecular target: FGFR3 (plate-coated) (UniProt P22607); assay: ELISA on FGFR3-coated wells, detection with NKG2D-Fc
[2] = molecular target: FGFR3 (plate-coated) (UniProt P22607); assay: ELISA: FGFR3 coated at 2 ug/ml, protein titrated, bound protein detected with NKG2D-Fc and anti-Fc-HRP
[3] = molecular target: FGFR3 (plate-coated) (UniProt P22607); assay: ELISA on FGFR3-coated wells, detection with NKG2D-Fc and anti-Fc-HRP

Measured: binding

B1: ULBP1-α3-iFv.2 (designed binder)
chain: EPHCLCYDFIITPKSRPEPQWCEVQGLVDERPFLHYDCVNHKAKAFASLGKKVNVTKTWEEQTETLRDVVDFLKGQLLDIQVENLIPIEPLTLQARMSCEHEAHGHGRGSWQFLFNGQKFLLFDSNNRKWTALHPGAKKMTEKWEKNRDVTMFFQKISLGDCKMWLEEFLMYWEQMLDPTKPPMVQVTRSEASGGSGDRVTITCRASQDVSTAVAWYQQKPGKAPKLLIYSASFLYSGVPSRFSGSGSGTDFTLTISSLQPEDFATYYCQQSYTTPPTFGQGTKVEIKGGSSRSSSSGGGGSGGGGEVQLVESGGGLVQPGGSLRLSCAASGFTFTSTGISWVRQAPGKGLEWVGRIYPTNGSTNYADSVKGRFTISADTSKNTAYLQMNSLRAEDTAVYYCARTYGIYDLYVDYTEYVMDYWGQGTLVTVSSGGSSRSSSSGGGGSGGGGDIQMTQSPSSLSASGGSGQITVTCRASGFYPWNITLSWRQDGVSLSHDTQQWGDVLPDGQGTYQTWVATRISQGEEQRFTCYMEHSGQHSTHPVPSGKGSHHHHHH
binds: all assays above

B2: ULBP2-α3-iFv.2 (designed binder)
chain: EPHSLCYDITVIPKFRPGPRWCAVQGQVDEKTFLHYDCGNKTVTPVSPLGKKLNVTTAWKAQNPVLREVVDILTEQLRDIQLENYTPKEPLTLQARMSCEQKAEGHSSGSWQFSFDGQIFLLFDSEKRMWTTVHPGARKMKEKWENDKVVAMSFHYFSMGDCIGWLEDFLMGMDSTLEPSAGAPPMVQVTRSEASGGSGDRVTITCRASQDVSTAVAWYQQKPGKAPKLLIYSASFLYSGVPSRFSGSGSGTDFTLTISSLQPEDFATYYCQQSYTTPPTFGQGTKVEIKGGSSRSSSSGGGGSGGGGEVQLVESGGGLVQPGGSLRLSCAASGFTFTSTGISWVRQAPGKGLEWVGRIYPTNGSTNYADSVKGRFTISADTSKNTAYLQMNSLRAEDTAVYYCARTYGIYDLYVDYTEYVMDYWGQGTLVTVSSGGSSRSSSSGGGGSGGGGDIQMTQSPSSLSASGGSGQITVTCRASGFYPWNITLSWRQDGVSLSHDTQQWGDVLPDGQGTYQTWVATRISQGEEQRFTCYMEHSGQHSTHPVPSGKGSHHHHHH
binds: all assays above

B3: ULBP3-α3-iFv.2 (designed binder)
chain: EPHSLWYNFTIIHLPRHGQQWCEVQSQVDQKNFLSYDCGSDKVLSMGHLEEQLYATDAWGKQLEMLREVGQRLRLELADTELEDFTPSGPLTLQVRMSCECEADGYIRGSWQFSFDGRKFLLFDSNNRKWTVVHAGARRMKEKWEKDSGLTTFFKMVSMRDCKSWLRDFLMHRKKRLEPTAPPMVQVTRSEASGGSGDRVTITCRASQDVSTAVAWYQQKPGKAPKLLIYSASFLYSGVPSRFSGSGSGTDFTLTISSLQPEDFATYYCQQSYTTPPTFGQGTKVEIKGGSSRSSSSGGGGSGGGGEVQLVESGGGLVQPGGSLRLSCAASGFTFTSTGISWVRQAPGKGLEWVGRIYPTNGSTNYADSVKGRFTISADTSKNTAYLQMNSLRAEDTAVYYCARTYGIYDLYVDYTEYVMDYWGQGTLVTVSSGGSSRSSSSGGGGSGGGGDIQMTQSPSSLSASGGSGQITVTCRASGFYPWNITLSWRQDGVSLSHDTQQWGDVLPDGQGTYQTWVATRISQGEEQRFTCYMEHSGQHSTHPVPSGKGSHHHHHH
binds: all assays above

B4: ULBP4-α3-iFv.2 (designed binder)
chain: EPHSLCFNFTIKSLSRPGQPWCEAQVFLNKNLFLQYNSDNNMVKPLGLLGKKVYATSTWGELTQTLGEVGRDLRMLLCDIKPQIKTSDPSTLQVEMFCQREAERCTGASWQFATNGEKSLLFDAMNMTWTVINHEASKIKETWKKDRGLEKYFRKLSKGDCDHWLREFLGHWEAMPEPTVSPPMVQVTRSEASGGSGDRVTITCRASQDVSTAVAWYQQKPGKAPKLLIYSASFLYSGVPSRFSGSGSGTDFTLTISSLQPEDFATYYCQQSYTTPPTFGQGTKVEIKGGSSRSSSSGGGGSGGGGEVQLVESGGGLVQPGGSLRLSCAASGFTFTSTGISWVRQAPGKGLEWVGRIYPTNGSTNYADSVKGRFTISADTSKNTAYLQMNSLRAEDTAVYYCARTYGIYDLYVDYTEYVMDYWGQGTLVTVSSGGSSRSSSSGGGGSGGGGDIQMTQSPSSLSASGGSGQITVTCRASGFYPWNITLSWRQDGVSLSHDTQQWGDVLPDGQGTYQTWVATRISQGEEQRFTCYMEHSGQHSTHPVPSGKGSHHHHHH
binds: all assays above

B5: ULBP6-α3-iFv.2 (designed binder)
chain: EPHSLCYDITVIPKFRPGPRWCAVQGQVDEKTFLHYDCGNKTVTPVSPLGKKLNVTTAWKAQNPVLREVVDILTEQLLDIQLENYTPKEPLTLQARMSCEQKAEGHSSGSWQFSIDGQTFLLFDSEKRMWTTVHPGARKMKEKWENDKDVAMSFHYISMGDCIGWLEDFLMGMDSTLEPSAGAPPMVQVTRSEASGGSGDRVTITCRASQDVSTAVAWYQQKPGKAPKLLIYSASFLYSGVPSRFSGSGSGTDFTLTISSLQPEDFATYYCQQSYTTPPTFGQGTKVEIKGGSSRSSSSGGGGSGGGGEVQLVESGGGLVQPGGSLRLSCAASGFTFTSTGISWVRQAPGKGLEWVGRIYPTNGSTNYADSVKGRFTISADTSKNTAYLQMNSLRAEDTAVYYCARTYGIYDLYVDYTEYVMDYWGQGTLVTVSSGGSSRSSSSGGGGSGGGGDIQMTQSPSSLSASGGSGQITVTCRASGFYPWNITLSWRQDGVSLSHDTQQWGDVLPDGQGTYQTWVATRISQGEEQRFTCYMEHSGQHSTHPVPSGKGSHHHHHH
binds: all assays above

B6: MICA-α3-iFv.1 (designed binder)
chain: EPHSLRYNLTVLSWDGSVQSGFLTEVHLDGQPFLRCDRQKCRAKPQGQWAEDVLGNKTWDRETRDLTGNGKDLRMTLAHIKDQKEGLHSLQEIRVCEIHEDNSTRSSQHFYYDGELFLSQNLETKEWTMPQSSRAQTLAMNVRNFLKEDAMKTKTHYHAMHADCLQELRRYLKSGVVLRRTVPPMVQVTRSEASGDRVTITCRASQDVSTAVAWYQQKPGKAPKLLIYSASFLYSGVPSRFSGSGSGTDFTLTISSLQPEDFATYYCQQSYTTPPTFGQGTKVEIKGGSSRSSSSGGGGSGGGGEVQLVESGGGLVQPGGSLRLSCAASGFTFTSTGISWVRQAPGKGLEWVGRIYPTNGSTNYADSVKGRFTISADTSKNTAYLQMNSLRAEDTAVYYCARTYGIYDLYVDYTEYVMDYWGQGTLVTVSSGGSSRSSSSGGGGSGGGGDIQMTQSPSSLSASGQITVTCRASGFYPWNITLSWRQDGVSLSHDTQQWGDVLPDGQGTYQTWVATRISQGEEQRFTCYMEHSGQHSTHPVPSGKGSHHHHHH
binds: all assays above
